{"sequences": {"note": "Sequences of proteins named here, by UniProt entry; tags and fusion partners are left off. A change or cut given only in a name is not applied to a line headed by its entry.", "UniProt P0ACL9": "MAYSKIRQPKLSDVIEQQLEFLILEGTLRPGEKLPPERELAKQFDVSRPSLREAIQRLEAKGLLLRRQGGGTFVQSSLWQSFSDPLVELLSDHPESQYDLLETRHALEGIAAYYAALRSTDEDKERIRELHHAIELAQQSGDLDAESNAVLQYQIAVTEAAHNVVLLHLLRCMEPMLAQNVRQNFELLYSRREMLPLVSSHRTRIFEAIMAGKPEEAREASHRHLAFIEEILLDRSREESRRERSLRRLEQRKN"}, "source": "paper PMC2936295", "target": "PdhR-His (Escherichia coli K-12 LJ110) (UniProt P0ACL9)", "test": "EMSA", "conditions": "50 mM pyruvate, 39 pmol PdhR, 0.1 pmol probe (0.025 pmol for lipA), 6% polyacrylamide gel, recombinant protein, protein details: C-terminal Penta-His, label: 5' DY682 (strand 1), 5' DY782 (strand 2)", "note": "Construct, isoform or probe ends are uncertain for at least one entry. No signal at the amounts used counts as a negative.", "data": [{"sequence": "GCCGAAGTCAATTGGTCTTACCAATTTCATGTCTGTG (double strand) [PdhR-binding site of pdhR-aceEF-lpd operon]", "values": [{"measurement": "binding result", "value": "no binding"}]}]}
